PubChem BioAssay AID504774 | Drosophila RNAi Screening Center – 2011

- Screen: 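Genes required for cells to withstand methyl methanesulphonate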 (primary screen)
- Cells: Drosophila Kc167 cells
- Reagents: long dsRNA against Drosophila genes, about 0.25 µg dsRNA per well
- Timing: about 6 days: 3 days knock-down, then 3 days with or without MMS
- Treatment: methyl methanesulphonate 0.004% (w/v) for 3 days after knock-down
- Detection: 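ATP-dependent luminescence as a measure of live cells in MMS-exposed wells, quantile normalised within each plate, with replicate values also given as a mean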
- Reading the numbers: mean viability with MMS and viability with MMS: higher = more surviving cells after MMS
The screen tested about 23,000 reagents; below is an unselected part of those with a known target gene and a result. 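Values are quantile-normalised luminescence on an arbitrary scale; higher means more cells surviving MMS.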

| Target gene | DRSC id | mean viability with MMS | viability with MMS, replicate 1 | viability with MMS, replicate 2 |
| --- | --- | --- | --- | --- |
| CG9826 | DRSC04570 | 3.66e6 | 4.07e6 | 4.22e6 |
| CG15464 (retired record) | DRSC18047 | 3.56e6 | 4.04e6 | 4.05e6 |
| CG15464 (retired record) | DRSC22086 | 3.70e6 | 4.17e6 | 4.14e6 |
| COX3 (retired record) | DRSC21279 | 3.51e6 | 4.06e6 | 3.93e6 |
| CG17147 | DRSC10249 | 3.38e6 | 3.82e6 | 3.79e6 |
| CG5194 | DRSC10492 | 3.63e6 | 4.20e6 | 4.04e6 |
| CG12439 | DRSC02168 | 3.55e6 | 3.92e6 | 4.14e6 |
| Argp (Arginine phosphatase) | DRSC16510 | 3.63e6 | 4.15e6 | 4.10e6 |
| Ance-4 | DRSC07104 | 3.52e6 | 4.05e6 | 3.95e6 |
| CG9498 | DRSC03235 | 3.49e6 | 4.01e6 | 3.90e6 |
| AnxB9 (Annexin B9) | DRSC14111 | 3.52e6 | 3.98e6 | 4.00e6 |
| Abp1 (Actin binding protein 1) | DRSC09693 | 3.45e6 | 3.84e6 | 3.96e6 |
| Zyx (Zyxin) | DRSC17186 | 3.53e6 | 4.04e6 | 3.97e6 |
| Hakai | DRSC02031 | 3.51e6 | 3.93e6 | 4.01e6 |
| ppk19 (pickpocket 19) | DRSC15321 | 3.94e6 | 4.36e6 | 4.73e6 |
| cg (combgap) | DRSC07650 | 2.25e6 | 2.77e6 | 2.89e6 |
| cg (combgap) | DRSC23142 | 3.39e6 | 3.94e6 | 3.76e6 |
| bonsai | DRSC04453 | 3.54e6 | 3.89e6 | 4.15e6 |
| Ada (Adenosine deaminase) | DRSC14463 | 3.40e6 | 3.89e6 | 3.85e6 |
| Fntb (Farnesyl transferase beta subunit) | DRSC15244 | 3.58e6 | 4.10e6 | 4.02e6 |
| CG7990 | DRSC19296 | 3.54e6 | 4.00e6 | 4.03e6 |
| CG7990 | DRSC20069 | 3.09e6 | 3.55e6 | 3.55e6 |
| CG7990 | DRSC23195 | 3.44e6 | 3.86e6 | 3.97e6 |
| prg (piragua) | DRSC03324 | 3.51e6 | 4.34e6 | 3.64e6 |
| Mcad (Medium-chain acyl-CoA dehydrogenase) | DRSC09871 | 3.54e6 | 4.02e6 | 4.02e6 |
| nebu (nebulosa) | DRSC09807 | 3.52e6 | 4.05e6 | 3.92e6 |
| nebu (nebulosa) | DRSC09808 | 3.65e6 | 4.12e6 | 4.12e6 |
| Galphas (G protein alpha subunit s) | DRSC04616 | 3.60e6 | 3.95e6 | 4.19e6 |
| CG8043 | DRSC16368 | 3.71e6 | 4.25e6 | 4.10e6 |
| ng3 (new glue 3) | DRSC18804 | 3.48e6 | 3.94e6 | 3.95e6 |
| CG8157 | DRSC07085 | 3.88e6 | 4.00e6 | 4.63e6 |
| CG8157 | DRSC21595 | 3.50e6 | 3.94e6 | 4.03e6 |

8 entries from above in another layout.
Target gene	DRSC id	mean viability with MMS	viability with MMS, replicate 1	viability with MMS, replicate 2
CG15464 (retired record)	DRSC22086	3.70e6	4.17e6	4.14e6
COX3 (retired record)	DRSC21279	3.51e6	4.06e6	3.93e6
CG17147	DRSC10249	3.38e6	3.82e6	3.79e6
CG5194	DRSC10492	3.63e6	4.20e6	4.04e6
CG12439	DRSC02168	3.55e6	3.92e6	4.14e6
Argp (Arginine phosphatase)	DRSC16510	3.63e6	4.15e6	4.10e6
Ance-4	DRSC07104	3.52e6	4.05e6	3.95e6
CG9498	DRSC03235	3.49e6	4.01e6	3.90e6

More entries:
| Target gene | DRSC id | mean viability with MMS | viability with MMS, replicate 1 | viability with MMS, replicate 2 |
| --- | --- | --- | --- | --- |
| ND-13A (NADH dehydrogenase (ubiquinone) 13 kDa A subunit) | DRSC03110 | 3.53e6 | 3.90e6 | 4.10e6 |
| CG15743 | DRSC19709 | 3.70e6 | 4.21e6 | 4.11e6 |
| DAAM (Dishevelled Associated Activator of Morphogenesis) | DRSC18479 | 1.71e6 | 3.85e6 | 3.90e6 |
| C15 | DRSC13495 | 3.32e6 | 3.77e6 | 3.69e6 |
| C15 | DRSC14169 | 3.58e6 | 4.05e6 | 4.06e6 |
| CG3919 | DRSC10389 | 3.46e6 | 3.90e6 | 3.92e6 |
| CG5770 | DRSC06954 | 3.57e6 | 4.07e6 | 4.03e6 |
| mRpS6 (mitochondrial ribosomal protein S6) | DRSC08470 | 3.40e6 | 3.96e6 | 3.72e6 |
| gcm2 | DRSC03538 | 3.65e6 | 3.95e6 | 4.32e6 |
| Dab (Disabled) | DRSC11140 | 3.59e6 | 3.85e6 | 3.67e6 |
| Nplp3 (Neuropeptide-like precursor 3) | DRSC09944 | 3.54e6 | 3.91e6 | 4.10e6 |
| CG14695 | DRSC14918 | 3.54e6 | 4.07e6 | 3.98e6 |
| beta4GalT7 (beta-4-galactosyltransferase 7) | DRSC14385 | 3.63e6 | 4.06e6 | 4.18e6 |
| Hacl (2-hydroxyacyl-CoA lyase) | DRSC06061 | 3.53e6 | 4.02e6 | 3.98e6 |
| CG7550 | DRSC10875 | 3.57e6 | 4.07e6 | 4.04e6 |
| dj (don juan) | DRSC12625 | 3.39e6 | 3.85e6 | 3.87e6 |
| Ten-m (Tenascin major) | DRSC11664 | 3.58e6 | 3.97e6 | 4.13e6 |
| Ten-m (Tenascin major) | DRSC11882 | 3.48e6 | 3.96e6 | 3.90e6 |
| unc80 (uncoordinated 80) | DRSC15329 | 3.68e6 | 4.17e6 | 4.16e6 |
| RpLP2 (Ribosomal protein LP2) | DRSC07539 | 3.11e6 | 3.65e6 | 3.57e6 |
| CG32373 | DRSC08895 | 3.49e6 | 4.00e6 | 3.92e6 |
| Ocho | DRSC11239 | 3.51e6 | 4.03e6 | 3.93e6 |
| rdgB (retinal degeneration B) | DRSC20365 | 1.81e6 | 4.08e6 | 3.89e6 |
| CG1674 | DRSC17142 | 3.65e6 | 4.10e6 | 4.16e6 |
| CG14105 | DRSC10107 | 3.55e6 | 3.96e6 | 4.08e6 |
| CG1409 | DRSC17910 | 3.23e6 | 3.51e6 | 3.75e6 |
| PolA2 (DNA polymerase alpha subunit 2) | DRSC16641 | 3.45e6 | 4.02e6 | 3.76e6 |
| Scsalpha2 (Succinyl-coenzyme A synthetase alpha subunit 2) | DRSC16003 | 3.66e6 | 4.08e6 | 4.18e6 |
| CG11313 | DRSC14295 | 3.39e6 | 3.75e6 | 3.88e6 |
| pix (pixie) | DRSC10533 | 3.06e6 | 3.55e6 | 3.49e6 |
| ND-B15 (NADH dehydrogenase (ubiquinone) B15 subunit) | DRSC06199 | 3.44e6 | 4.00e6 | 3.86e6 |
| CG10984 | DRSC09817 | 3.76e6 | 4.09e6 | 4.45e6 |
| Gs1l (GS1-like) | DRSC00754 | 3.49e6 | 3.92e6 | 3.99e6 |
| CG15152 | DRSC02453 | 3.44e6 | 3.86e6 | 3.96e6 |
| Rilpl (Rab interacting lysosomal protein like) | DRSC18494 | 3.58e6 | 4.07e6 | 4.05e6 |
| Rbbp5 (Retinoblastoma binding protein 5) | DRSC11778 | 3.47e6 | 4.02e6 | 3.84e6 |
